Measurements reported in patent publication US11613780B2, “Materials and methods for identifying gyrase inhibitors” (THE FLORIDA INTERNATIONAL UNIVERSITY BOARD OF TRUSTEES, priority 2016, dated 2023).
“Also recorded” adds a separate entry of the source. At least one compound was matched to its structure with a doubt left.

System: expression of firefly luciferase under the control of the PgyrA (screen for DNA gyrase inhibitors)
Test: Firefly luciferase expression from PgyrA divergently coupled to IPTG-induced PT7Al/O4 (luciferase assay)
Type: cell-based, E. coli
Conditions: for expression of firefly luciferase (other antibiotics): FIG. 12F, antibiotics that are not gyrase inhibitors
Description: FIGS. 5A-5D. (FIG. 5A) and (FIG. 5B) Inhibition of the supercoiling-sensitive PgyrA by E. coli […] on the chromosome. E. coli strains FL1181 (MG1655(DE3)ΔlacZ attTn7::PT7Al/O4lacZ-PgyrAluc; squares) and FL1182 (VS111(DE3)ΔlacZ attTn7::PT7Al/O4lacZ-PgyrAluc; circles) were used. The activities of β-galactosidase (Miller's units) and firefly luciferase (RLU) were plotted against the IPTG concentration added to the cell cultures. […] Overnight cell cultures were diluted 100-fold and grown until OD600 reached 0.2. Then 0.5 mM of IPTG and various concentrations of ciprofloxacin or other antibiotics were added to the cell cultures. After additional 30 min incubation, the activities of β-galactosidase and firefly luciferase were measured as described under Materials and Methods. (FIG. 5C) Ciprofloxacin inhibited the expression of β-galactosidase.
Briefly, a 5.1 kb DNA fragment carrying the divergently coupled PgyrA and PT7Al/O4 promoters with the luc and lacZ genes was inserted to the attTn7 site of the E. coli chromosome (84 min of the chromosome) to generate FL1181 and FL1182. In both strains, the IPTG-inducible PT7Al/O4 controls the expression of β-galactosidase. Using similar approach, the following E. coli strains were generated: FL1181, FL1182, FL1198, FL1199, FL1200, FL1202, FL1203, and FL1204.
Luciferase Assay was used to verify the expression of luciferase in various E. coli strains carrying different plasmid DNA templates. Briefly, E. coli cells carrying different plasmids were grown overnight in LB. Antibiotics were added to LB as needed. The overnight culture was then diluted (1:100) in fresh LB in the presence of different concentrations of IPTG, and grown until the OD600 nm reached approximately 0.5. Next, 50 μl of cells were mixed with 10 μl of 1 M K2HPO4 (pH 7.8) and 20 mM EDTA, quickly frozen in liquid nitrogen for 3 min, and equilibrated to room temperature for 30 min to yield about 60 μl of cell lysate. Then, the cell lysate was added with 300 μl freshly prepared lysis mix containing 1×cell culture lysis reagent (CCLR), 1.25 mg/ml lysozyme, and 2.5 mg/ml BSA, and incubated for 10 min at room temperature. Finally, 100 μl of Luciferase Assay Reagent (Promega Corporation, Madison, Wis.) was added to 20 μl of the cell lysate and used for light measurement by using a Promega GloMax 20/20 Single-Tube Luminometer.

| SMILES | expression of firefly luciferase (other antibiotics) | expression of firefly luciferase of FL #1181 (FL #1181, in the presence of IPTG, FIG. 12E) |
| --- | --- | --- |
| NC[C@H]1O[C@H](O[C@H]2[C@H](O)[C@@H](O[C@H]3O[C@H](CO)[C@@H](O)[C@H](N)[C@H]3O)[C@H](N)C[C@@H]2N)[C@H](O)[C@@H](O)[C@@H]1O [kanamycin] | inhibited |  |
| C[C@H]1COc2c(N3CCN(C)CC3)c(F)cc3c(=O)c(C(=O)O)cn1c23 [levofloxacin] |  | stimulation |
| CN(C)[C@@H]1C(O)=C(C(N)=O)C(=O)[C@@]2(O)C(O)=C3C(=O)c4c(O)cccc4[C@@](C)(O)[C@H]3C[C@@H]12 [tetracycline] | inhibition |  |
| CO[C@H]1/C=C/O[C@@]2(C)Oc3c(C)c(O)c4c(O)c(c(/C=N/N5CCN(C)CC5)c(O)c4c3C2=O)NC(=O)/C(C)=C\C=C\[C@H](C)[C@H](O)[C@@H](C)[C@@H](O)[C@@H](C)[C@H](OC(C)=O)[C@@H]1C [rifampicin] | inhibited; also recorded: inhibition |  |
